Measured values: PubChem BioAssay AID540256 (National Center for Advancing Translational Sciences (NCATS), 2011)
In all, about 300,000 compounds went through this assay and about 3,700 (1.2%) were called active. This list was built around the results that the source calls inconclusive (neither active nor inactive); the mix of calls is not that of the screen. Calls follow the shape of the full dose curve; tested in HEK293 cells. A potency beside an inconclusive call is a rough fit, not a confirmed value.

Test: qHTS for Inhibitors of binding or entry into cells for Lassa Virus; also: nearly all actives have a fitted effect of over 50% in size
Settings: Lassa virus pseudotype entry inhibition, cell reporter; activity change, negative = inhibition: at 37.9 µM (top of the series) unless noted
% is scaled to controls: 0 for no effect and ±100 for the full control effect; potency is read from the fitted curve at half-maximal effect.

| Structure (SMILES) | Potency | activity change, negative = inhibition |
| --- | --- | --- |
| O=C(CCNS(=O)(=O)c1ccc(OC(F)(F)F)cc1)N1CCN(C/C=C/c2ccccc2)CC1 | inconclusive: 17.8 µM [inhibitor, partial curve, poor fit] |  |
| CN(C)S(=O)(=O)c1ccc(N2CCCC2)c(C(=O)Nc2ccccc2OC(F)F)c1 | inconclusive: 35.5 µM [inhibitor, partial curve, poor fit] |  |
| Cc1ccc(NC(=S)N(CCN2CCCCC2)Cc2ccco2)cc1 | inconclusive: 2.82 µM [inhibitor, single point] |  |
| c1ccc(Cn2c(CN3CCCC3)nc3ccccc32)cc1 |  | inactive: 19.7% |
| Cc1cnn(-c2nc(-c3cccs3)cc(C(F)(F)F)n2)c1 |  | inactive: 7.1% |
| Cc1ccc(C(C)C)c(OCC(=O)NCC2(N3CCOCC3)CCCCC2)c1 |  | inactive: -5.57% [at 46.1 µM] |
| COc1ccc(SCC(=O)c2cc(C)c(OC(=S)N(C)C)c(C)c2)cc1 | inconclusive: 29.1 µM [inhibitor, single point] |  |
| Cc1ccc(C)c(NC(=O)CSc2ccc(-c3cccs3)nn2)c1 | inconclusive: 0.251 µM [inhibitor, full curve, poor fit] |  |
| COc1ccccc1C(=O)NCc1nnc(SC(C)C(=O)Nc2nccs2)n1C (centres undefined) | inconclusive: 20 µM [activator, partial curve, poor fit] |  |
| COc1ccc(Nc2nc(-c3ccncc3)nc3ccccc23)cc1 |  | inactive: -9.64% [at 46.1 µM] |
| O=C(COC(=O)c1ccccc1O)NCCCc1ccccc1 | inconclusive: 1.26 µM [activator, single point] |  |
| CCCC(=O)Nc1ccc(C(=O)N/N=C/c2cccnc2)cc1 |  | inactive: -62.4% [at 14.3 µM] |
| O=C1CCCC(=NNC(=O)c2cc3ccccc3cc2O)C1 | inconclusive: 1.41 µM [activator, partial curve, poor fit] |  |
| O=C(NCCc1ccccc1)c1cccc(S(=O)(=O)N2CCCCC2)c1 |  | inactive: -34% |
| COc1ccc(NC(=O)C2CCCN(C(=O)c3cnn(-c4ccccc4)c3-n3cccc3)C2)cc1 (centres undefined) | inconclusive: 3.16 µM [inhibitor, single point] |  |
| O=C(Nc1ccccc1)c1cccc(C(F)(F)F)c1 |  | inactive: 5.88% |
| COc1ccc(Nc2c3c(nc4ccccc24)CCC3)c(OC)c1 | inconclusive: 35.5 µM [inhibitor, single point] |  |
| Cc1csc(SCCN2C(=O)c3ccccc3C2=O)n1 | inconclusive: 2.91 µM [activator, full curve] |  |
| CCCCn1c(SCc2ccccn2)nc2c1c(=O)n(C)c(=O)n2C | inconclusive: 10 µM [inhibitor, partial curve] |  |
| CCOc1ccc2c(c1)c(N=Nc1cccc(C(=O)O)c1)c(O)n2C | inconclusive: 0.251 µM [activator, full curve, poor fit] |  |
| CC(O)CNC(=O)C(=O)Nc1c2c(nn1-c1ccc(Cl)cc1)CSC2 (centres undefined) |  | inactive: 0.365% [at 46.1 µM] |
| Cc1ccc2c(=O)cc(C(=O)N(Cc3ccccc3Cl)C3CCS(=O)(=O)C3)oc2c1 (centres undefined) |  | inactive: -3.57% [at 46.1 µM] |
| COc1ccc(-c2cc(-c3ccccc3)c(C#N)c(SCC(O)CS(=O)(=O)Cc3ccccc3)n2)cc1 (centres undefined) | inconclusive: 10 µM [inhibitor, partial curve, poor fit] |  |

| Structure (SMILES) | Potency | activity change, negative = inhibition |
| --- | --- | --- |
| COc1ccc(C2CC(c3cccs3)=NN2C(=O)CCl)cc1OC (centres undefined) | inconclusive: 11.2 µM [inhibitor, partial curve, poor fit] |  |
| Cc1cc(CN(C)Cc2c(C(=O)N3CCCCCCC3)nc3ccc(Cl)cn23)n[nH]1 | inconclusive: 7.94 µM [inhibitor, partial curve, poor fit] |  |
| CCOC(=O)N1CCN(CC(=O)Nc2cccc(Br)c2)CC1 | inconclusive: 35.5 µM [inhibitor, single point] |  |
| COc1ccc(N=Cc2cc3c(cc2O)OC(N)=C(C#N)C3c2ccccc2)cc1 (centres undefined) | inconclusive: 20 µM [inhibitor, partial curve, poor fit] |  |
| CSc1ccccc1NC(=O)CSCc1ccc(C)cc1 | inconclusive: 35.5 µM [inhibitor, single point] |  |
| CCOC(=O)C(NC(=O)Nc1cccc(C)n1)(OCC(F)(F)F)C(F)(F)F (centres undefined) |  | inactive: 3.03% |
| COc1cc(/C=N/Nc2nc3ccccc3[nH]2)cc(Br)c1OCC(=O)N(C)C | inconclusive: 35.5 µM [inhibitor, single point] |  |
| O=C(Nc1ccc(Br)cc1)N1CCc2ccccc2C1 |  | inactive: -17.4% [at 46.1 µM] |
| O=C(CSC(=S)N1CCOCC1)c1ccccc1 | active: 14.6 µM |  |
| COc1cc(C(=O)NC2CC(=O)N(c3cccc(F)c3)C2)cc(OC)c1OC (centres undefined) | inconclusive: 35.5 µM [activator, single point] |  |
| O=C(NC(=S)NCCc1ccc(Cl)cc1)c1ccco1 | inconclusive: 2.59 µM [activator, partial curve, poor fit] |  |
| Cc1cccc(-c2nc(CS(=O)CC(=O)NC3CCCCC3)c(C)o2)c1 (centres undefined) |  | inactive: 19.5% [at 46.1 µM] |
| Cc1ccc(C(=O)CSc2nccn2-c2ccccc2)cc1 |  | inactive: 12.9% |
| CC1CN(C(=O)N2CCC(C(=O)NC3CCCCCC3)CC2)c2cc(Cl)ccc2O1 (centres undefined) | inconclusive: 5.62 µM [inhibitor, full curve] |  |
| c1ccc(Nc2ncc(-c3ccccc3)o2)cc1 | inconclusive: 4.99 µM [inhibitor, partial curve, poor fit] |  |
| COc1ccccc1-n1c(SCC(N)=O)nnc1-c1ccccc1 |  | inactive: 8.13% |
| COC(=O)c1cccc(NC(=O)CCCOc2ccccc2)c1 | inconclusive: 2.91 µM [activator, single point] |  |
| CCCCN(C)S(=O)(=O)c1cc2c(cc1Br)CCN2C(=O)C1CC1 | inconclusive: 35.5 µM [inhibitor, single point] |  |
| COc1ccc(-n2c(C)cc(/C=N/Nc3nc(N4CCOCC4)nc(N4CCOCC4)n3)c2C)cc1 | inconclusive: 4.47 µM [inhibitor, single point] |  |
| O=C(CSCc1ccc(Cl)cc1)N/N=C/c1ccc(OCC(=O)Nc2ccccc2)cc1 | inconclusive: 3.16 µM [inhibitor, full curve, poor fit] |  |
| CCN(CC)CCCNC(=O)c1cc(-c2ccc(OC)c(OC)c2)on1 |  | inactive: -4.23% [at 46.1 µM] |
| CCOc1ccc(C(=O)CSc2nnc(N)s2)cc1 |  | inactive: 3.61% |
| N=C1S/C(=C\c2cccc3ccccc23)C(=O)N1c1ccc(F)cc1 | active: 8.91 µM |  |

Copied from the list.
Potency, O=C(CSCc1ccc(Cl)cc1)N/N=C/c1ccc(OCC(=O)Nc2ccccc2)cc1 reads inconclusive: 3.16 µM [inhibitor, full curve, poor fit]
activity change, negative = inhibition, CCOC(=O)C(NC(=O)Nc1cccc(C)n1)(OCC(F)(F)F)C(F)(F)F (centres undefined) reads inactive: 3.03%
Potency, CSc1ccccc1NC(=O)CSCc1ccc(C)cc1 reads inconclusive: 35.5 µM [inhibitor, single point]
activity change, negative = inhibition, CCN(CC)CCCNC(=O)c1cc(-c2ccc(OC)c(OC)c2)on1 reads inactive: -4.23% [at 46.1 µM]

(further entries)

| Structure (SMILES) | Potency | activity change, negative = inhibition |
| --- | --- | --- |
| COc1ccc(-c2csc(COC(=O)C(C)(C)C)n2)cc1 |  | inactive: 15.3% |
| CCC(c1nnnn1C1CCCC1)N1CCC(C(N)=O)CC1 (centres undefined) | inconclusive: 3.16 µM [inhibitor, single point] |  |
| CCCOc1ccccc1OCC(=O)Nc1ccc(S(=O)(=O)N2CCCCC2)cc1 | inconclusive: 15.8 µM [inhibitor, single point] |  |
| CN(C)CCN(Cc1ccco1)S(=O)(=O)c1ccc(-c2ccc(=O)[nH]n2)s1 | inconclusive: 7.94 µM [activator, partial curve, poor fit] |  |
| Cc1cc(N2CCOCC2)n2cc(-c3ccccc3)nc2n1 |  | inactive: 0.353% |
| O=C(Nc1cc(Cl)cc(Cl)c1)c1ccc(F)c(S(=O)(=O)N2CCCCCC2)c1 | inconclusive: 35.5 µM [activator, single point] |  |
| O=C(NCCc1nnc2ccc(NCCCN3CCOCC3)nn12)c1ccccc1 | inconclusive: 1.26 µM [inhibitor, single point] |  |
| CCCCCCN1C[C@H](n2cc(C3CC3)nn2)[C@@H](O)C[C@H]1c1ccc(C)cc1 | inconclusive: 0.0112 µM [activator, full curve, poor fit] |  |
| Cc1ccccc1NC(=O)C1c2cccc[n+]2CC(=O)N1c1c(C)cccc1C (centres undefined) |  | inactive: 6.26% |
| Cc1nc2cc(N3CCCCC3)c(NC(=O)c3cccnc3)cc2c(=O)n1Cc1ccccc1 |  | inactive: -10.9% |
| CC(C)(C)NS(=O)(=O)c1ccc2[nH]c3c(c2c1)CCCCC3 |  | inactive: -20.6% |
| O=C(NCCCN1CCN(c2ccc(F)cc2)CC1)C1CCCN(c2ncnc3c2nc2n3CCCCC2)C1 (centres undefined) | inconclusive: 35.5 µM [inhibitor, partial curve, poor fit] |  |
| O=C(Nc1c2c(nn1-c1cccc(Cl)c1)CS(=O)(=O)C2)C1CC1 | inconclusive: 2.51 µM [activator, partial curve, poor fit] |  |
| Cc1c(C)c2cc(Cl)c(OCC(=O)NC3CC(C)(C)NC(C)(C)C3)cc2oc1=O | inconclusive: 35.5 µM [activator, partial curve, poor fit] |  |
| O=C(CN1C(=O)NC2(CCCC2)C1=O)OCCOc1ccc(Cl)cc1Cl |  | inactive: 5.96% [at 46.1 µM] |
| Cc1nc2c(ccc3nc(NC(=O)Cc4ccccc4)sc32)s1 | inconclusive: 32.6 µM [inhibitor, single point] |  |
| CCOC(=O)c1cnc2ccc(C(=O)OC)cc2c1Nc1ccc2c(c1)OCCO2 | inconclusive: 2.31 µM [inhibitor, full curve, poor fit] |  |
| COc1cc(-c2nnc(CSc3nnc(Nc4ccc(C(C)C)cc4)s3)o2)cc(OC)c1OC | inconclusive: 15.8 µM [inhibitor, single point] |  |
| Cc1nc2ccc(S(=O)(=O)NCC(=O)N3CCc4ccccc43)cc2s1 |  | inactive: -5.36% |
| Cc1cccn2cc(-c3ccc(S(=O)(=O)N4CCCCC4)cc3)nc12 | inconclusive: 10.3 µM [inhibitor, partial curve, poor fit] |  |
| CC(=O)Nc1ccc2c(c1)CCC2=O | inconclusive: 32.6 µM [activator, single point] |  |
| COc1ccc(CCNC(=O)c2cc(Sc3cccc(Cl)c3)nc3ccccc23)cc1OC | inconclusive: 11.2 µM [inhibitor, single point] |  |
| CCOC(=O)c1c(NC(=O)CSc2nnnn2-c2ccccc2)sc2c1CC(C)(C)NC2(C)C | inconclusive: 14.1 µM [inhibitor, single point] |  |
